# This is one part of the list. These are raw signals, not scaled to a control.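 Primary screen: polymyxin B was added at a level permeabilizing Salmonella outer membranes while sparing inner membranes. DMSO wells, both with and without polymyxin B, established maximum growth. Plate-to-plate variation meant each plate was ranked on its own, and the lowest-OD600 compounds were selected as hits.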
# Test system: Salmonella enterica serovar Typhimurium SL1344
# Experiment: bacterial growth OD600 after 18 h with compound and polymyxin B; higher = more bacterial growth (less inhibition)
# Settings: 50 µM, Mueller-Hinton broth
Compound,bacterial growth OD600 (polymyxin B 1 µg/mL),bacterial growth OD600 (polymyxin B 0.75 µg/mL)
O=C(NC1CCCN(CCc2ccccc2)C1)C1=CCCC1 (stereo unspecified),0.859,
O=C(NC1CCOC1)c1csc2nc(-c3ccc(C(F)(F)F)cc3)cn12 (stereo unspecified),1.29,
CN(Cc1nc2ccccc2n1C)C1CCCN(CCc2ccccc2)C1 (stereo unspecified),0.895,
COc1ccccc1N1CCN(C2CCCN(C(=O)c3cc4ccccc4n3C)C2)CC1 (stereo unspecified),0.775,
COc1cc(CNCC(C)C)ccc1OCC(O)CN1CCOCC1 (stereo unspecified),0.875,
O=C(CC(c1cccc(O)c1)c1ccccc1Cl)N1CCSCC1 (stereo unspecified),0.014,
COc1cc(CN2CCCC(Nc3ccc(F)cc3)C2)ccc1F (stereo unspecified),0.901,
C=CC[C@H]1CC(C)=C[C@H](CC=C)N1C(=O)c1ccc(-n2cc(NC(=O)c3cccnc3)cn2)cc1,,0.008
COc1cccc(C(C)N(C)Cc2nc(-c3cccs3)no2)c1 (stereo unspecified),0.787,
O=C(CCOc1ccccc1)NCc1cccnc1N1CCCC(O)C1 (stereo unspecified),,0.756
Cc1noc(C)c1CCCNC(=O)c1ccc(N2CCN3CCCC3C2)nc1 (stereo unspecified),1.08,
Cc1cc(C)n(CCC(=O)NC2CC(=O)N(Cc3ccc(F)cc3)C2)n1 (stereo unspecified),0.898,
COc1ccc(NC2CCCN(C(=O)c3ccc(C(F)(F)F)cc3)C2)cc1 (stereo unspecified),1,
O=C(C1CCOCC1)N1CCCC(CNC(=O)C2(c3ccc(Cl)cc3)CC2)C1 (stereo unspecified),0.98,
COC(=O)C1CCCCN1C(=O)c1cc(COc2ccc(C(C)=O)cc2)on1 (stereo unspecified),0.873,
O=C(C1=CCCC1)N1CCCC(N2CCN(c3ccc(F)cc3)CC2)C1 (stereo unspecified),0.861,

Compound,bacterial growth OD600 (polymyxin B 1 µg/mL),bacterial growth OD600 (polymyxin B 0.75 µg/mL)
CCN1CCN(C2(C(=O)NCCCn3ccnc3C)Cc3ccccc3C2)CC1,,0.935
O=C(c1ccc(Oc2ccccc2)cc1)C1CCCN(C(=O)CCN2CCCCC2=O)C1 (stereo unspecified),0.021,
O=C(NCC1CCCN(Cc2cccc3c2OCO3)C1)c1cc2ccccc2[nH]1 (stereo unspecified),,0.712
CC(=O)Nc1ccnn1C1CCN(Cc2cccc(OC3CCCC3)c2)CC1,1.06,
O=C(CCn1cccn1)N1CCCC(CCc2ccc(F)c(F)c2)C1 (stereo unspecified),,0.475
CCC(=O)N[C@@H]1c2ccccc2C2(CCN(Cc3cc(F)cc(F)c3)CC2)[C@H]1OCCOC,,0.908
COc1ccc(C(=O)N(C)C2CCCN(CCc3ccccc3)C2)cc1OC (stereo unspecified),0.994,
COCc1ccc(CN2CCc3c(C(=O)N4CCCCC4C(=O)OC)c(OC)cc(=O)n3CC2)o1 (stereo unspecified),,0.835
CCc1ccc(CN2CCc3c(C(=O)NCc4ccccc4OC)c(OC)cc(=O)n3CC2)o1,,0.785
Cc1cccc(C(=O)N2CCCC(N3CCN(c4cccc(Cl)c4)CC3)C2)c1 (stereo unspecified),0.877,
COc1cccc(CN2C[C@@H]3C[C@@H](c4ccc(OC)c(C)c4)N4CCC[C@@]34C2=O)c1,1.09,
CCCNC(=O)N1CCCC1C(=O)Nc1ccccc1-c1ccc(OC)cc1 (stereo unspecified),0.845,
CC(C)(C)NC(=O)NC1CC(=O)N(Cc2ccccc2C(F)(F)F)C1 (stereo unspecified),0.725,
Cc1c(CN2C[C@H]3OC(=O)N(CCc4ccc(F)cc4)[C@H]3C2)cnn1C,,0.835
CC(C)c1noc(CN(C)c2ccc(-c3nc(C(C)C)no3)cn2)n1,,0.526

# An excerpt from above in order of molecular weight, high to low:
Compound,bacterial growth OD600 (polymyxin B 1 µg/mL),bacterial growth OD600 (polymyxin B 0.75 µg/mL)
COCc1ccc(CN2CCc3c(C(=O)N4CCCCC4C(=O)OC)c(OC)cc(=O)n3CC2)o1 (stereo unspecified),,0.835
COc1cccc(CN2C[C@@H]3C[C@@H](c4ccc(OC)c(C)c4)N4CCC[C@@]34C2=O)c1,1.09,
COc1ccc(C(=O)N(C)C2CCCN(CCc3ccccc3)C2)cc1OC (stereo unspecified),0.994,

# Reference: the supplement of paper PMC12889115
